These are yes or no findings as the source states them, for the method shown. Some binding calls cover weakened binding; strength is not graded here. One block for each substance: values may come before it.
Key:
[1] = target: mouse DNMT3C MTase domain (residues 456–740) (mouse) (UniProt P0DOY1); experiment: crystal structure; DNMT3C MTase domain-hDNMT3L C-terminal domain covalently bound to a 25-mer ZpG/CpG DNA, with SAH; 3.2 Å; crystals grown at 4 °C; both purified
[2] = target: DNMT3C rahu mutant (E693G), MTase domain (mouse) (UniProt P0DOY1); experiment: SEC; Superdex 200 increase 10/300 GL; 500 μl of 0.4 mg/ml protein; 25 mM Tris-HCl pH 7.5, 5% glycerol, 250 mM NaCl, 5 mM DTT; protein identity confirmed by SDS-PAGE; both purified
[3] = target: mouse DNMT3C MTase domain (residues 456–740) (mouse) (UniProt P0DOY1); experiment: co-purification (Ni-NTA, Heparin, SEC); His6-SUMO-DNMT3C and untagged DNMT3L co-expressed in E. coli; lysis in 50 mM Tris-HCl pH 8.0, 1 M NaCl, 10% glycerol, 18 mM imidazole; held on Ni-NTA by the tag of DNMT3C

Protein sequences, listed by entry. Tags and fused reporters are not part of them. Lines headed by an entry give the natural chain unless they say otherwise; changes in a name come on top. Chains listed by the source or under a name are the forms on record and can include a tag or linker. Residues count along the entry.
mouse DNMT3C MTase domain (residues 456–740) (P0DOY1, residues 456-740): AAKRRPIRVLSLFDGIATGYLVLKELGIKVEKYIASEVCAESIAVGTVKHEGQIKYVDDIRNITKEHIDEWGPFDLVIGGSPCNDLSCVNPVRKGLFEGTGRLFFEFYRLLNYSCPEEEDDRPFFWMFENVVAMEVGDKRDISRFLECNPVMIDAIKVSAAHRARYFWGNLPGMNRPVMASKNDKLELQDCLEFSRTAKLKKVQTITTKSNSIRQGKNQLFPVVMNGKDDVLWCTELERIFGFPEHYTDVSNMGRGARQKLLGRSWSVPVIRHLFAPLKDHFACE
DNMT3C rahu mutant (E693G), MTase domain (P0DOY1, form named): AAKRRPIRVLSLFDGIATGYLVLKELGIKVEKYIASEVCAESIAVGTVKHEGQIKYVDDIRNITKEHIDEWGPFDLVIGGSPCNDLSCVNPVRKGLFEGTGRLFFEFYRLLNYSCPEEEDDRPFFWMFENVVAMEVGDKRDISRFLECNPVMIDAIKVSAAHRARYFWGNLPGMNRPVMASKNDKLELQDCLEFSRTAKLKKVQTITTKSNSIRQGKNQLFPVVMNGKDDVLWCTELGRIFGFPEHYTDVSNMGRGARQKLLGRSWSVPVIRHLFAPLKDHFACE
UniProt Q9UJW3, residues 178-386: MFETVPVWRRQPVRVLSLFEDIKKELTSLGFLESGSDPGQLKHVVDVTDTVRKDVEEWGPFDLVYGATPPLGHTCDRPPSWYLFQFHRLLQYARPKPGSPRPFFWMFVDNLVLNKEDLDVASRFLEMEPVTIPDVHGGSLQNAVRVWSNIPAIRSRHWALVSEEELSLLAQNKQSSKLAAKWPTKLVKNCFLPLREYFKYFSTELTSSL
UniProt Q9CWR8, residues 220-415: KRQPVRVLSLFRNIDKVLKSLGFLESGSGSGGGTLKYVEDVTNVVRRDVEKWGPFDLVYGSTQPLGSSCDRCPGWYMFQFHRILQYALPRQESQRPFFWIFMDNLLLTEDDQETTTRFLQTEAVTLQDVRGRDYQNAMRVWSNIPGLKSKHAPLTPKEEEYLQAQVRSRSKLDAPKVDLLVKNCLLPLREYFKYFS

binding [1]: binds
Substance: human DNMT3L C-terminal domain (residues 178–386) (from UniProt Q9UJW3-1 178-386) (domain or fragment)

binding [2]: no binding (tested: 0.4 mg/ml)
Substance: DNMT3C rahu mutant (E693G), MTase domain (from UniProt P0DOY1 456-740) (domain or fragment)

binding [3]: binds
Substance: mouse DNMT3L C-terminal domain (residues 220–415) (from UniProt Q9CWR8 220-415) (domain or fragment)

— article PMC11401227, “The structure of DNA methyltransferase DNMT3C reveals an activity-tuning mechanism for DNA methylation” (The Journal of Biological Chemistry, 2024)
